Among all 320,000 compounds or so, about 740 (0.23%) were called active. The inconclusive results got no clear call from the source; some entries with a clear call stand among them for comparison. Calls follow the shape of the dose curve; as a rule, active = well fitted activation curve with a large enough effect; inconclusive = small, poorly fitted or top-dose-only effect; inactive = no such curve, though single readings can be large or run the other way. Potencies of inconclusive entries are doubtful fits and often do not repeat. Some compounds were tested as several samples or in several runs, with calls that do not always agree.
test: qHTS Assay for Small Molecule Inhibitors of Mitochondrial Division or Activators of Mitochondrial Fusion; also: nearly all actives have a fitted effect of over 45% in size;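 as to growth rescue (activation): temperature-sensitive fusion mutants such as fzo1-1 at 37 °C on non-fermentable ethanol glycerol medium; % of control where 0% means no effect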; settings: S. cerevisiae fusion-defective mutant growth rescue, CellTiterGlo 48 h; growth rescue (activation): at 46.1 µM (top of the series) unless noted
Method in brief: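 Compounds are tested for their ability to restore growth of mitochondrial fusion-defective yeast strains at non-permissive 37C in YPEG medium over 48 hours. Viability is quantified by luciferase luminescence.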
Potency is read from the fitted curve at half-maximal effect.

SMILES	Potency	growth rescue (activation)
O=C(/C=C/c1ccccc1Cl)N(c1ccccn1)C1CCCCC1	inconclusive: 15.8 µM [activator, single point]	–
O=C(c1ccc(N2CCCC2=O)cc1)N1CCN(c2cccc(C(F)(F)F)c2)CC1	–	inactive: -7.5%
COc1ccc(-c2cc(=O)oc3cc(OC(=O)C4CCCCC4)c(Cl)cc23)cc1	inconclusive: 31.6 µM [activator, single point]	–
CC(C)C(O)(c1ccccc1)C(CN1CCOCC1)c1ccccc1 (centres undefined)	inconclusive: 35.5 µM [activator, single point]	–
Cc1cccc(C(=O)N(Cc2nc3ccccc3c(=O)[nH]2)C2CCCCC2)c1	inconclusive: 12.6 µM [activator, partial curve]	–
Cc1c(/C=N/NC(=O)CNc2ccccc2)c2ccccn2c1C(=O)c1ccccc1	inconclusive: 14.1 µM [activator, single point]	–
c1ccc(-n2c(-c3ccco3)nnc2-c2ccco2)cc1	–	inactive: 10.8%
Cc1ccc(C)c(CN2C(=O)c3ccccc3S(=O)c3ccc(C(=O)N4CCN(c5ccccn5)CC4)cc32)c1 (centres undefined)	–	inactive: 0.641%
Clc1ccccc1CN1CCN(/N=C/C=C\c2ccco2)CC1	–	inactive: -3.9%
COc1ccc(S(=O)(=O)NCC(c2ccco2)N2CCc3ccccc32)cc1 (centres undefined)	inconclusive: 17.8 µM [activator, single point]	–
Cc1ccc(-c2nnn(CC(=O)N(CC3CCCO3)C(C(=O)NC3CCCC3)c3ccc(O)cc3)n2)o1 (centres undefined)	–	inactive: 1.31%
COCCn1c(N)c(N(Cc2ccccc2)C(=O)C2CCCC2)c(=O)[nH]c1=O	inconclusive: 22.4 µM [activator, partial curve, poor fit]	–
CC(C)(C)OC(=O)N1CCC(c2cc(=O)n3[nH]cc(C(=O)Nc4ccc(F)c(Cl)c4)c3n2)CC1	–	inactive: -0.0935%
CN(C(=O)c1cccc(COc2ccc(Cl)cc2Cl)c1)c1ccccc1	inconclusive: 17.8 µM [activator, single point]	–
O=C(/C=C/c1ccc2c(c1)OCO2)NCCSCc1c(Cl)cccc1Cl	inconclusive: 35.5 µM [activator, single point]	–
Cc1c(C(=O)Nc2cccc(Cl)c2)c2ccccn2c1CCc1ccncc1	inconclusive: 12.6 µM [activator, single point]	–
Fc1cccc(-c2cc3nc4c(c(N5CCOCC5)n3n2)CCCC4)c1	inconclusive: 11.2 µM [activator, partial curve]	–
O=S(=O)(c1ccccc1)N1N=C(c2ccc(Cl)cc2)CC1c1ccco1 (centres undefined)	inconclusive: 11.2 µM [activator, single point]	–
CCC(C(=O)OCC(=O)c1ccc2c(c1)NC(=O)CO2)c1ccccc1 (centres undefined)	inconclusive: 14.1 µM [activator, partial curve]	–
O=C(CN1C(=O)c2ccccc2S1(=O)=O)NC(Nc1ccccc1F)C(Cl)(Cl)Cl (centres undefined)	–	inactive: -3.42%
CCn1cnc2sc(C(=O)Oc3ccc(Br)cc3)c(C)c2c1=O	inconclusive: 20 µM [activator, single point]	–
COc1ccc(S(=O)(=O)N2CCN(Cc3ccc4c(c3)OCO4)CC2)cc1F	inconclusive: 35.5 µM [activator, single point]	–
Cc1ccc(C(C(=O)NCc2ccc(F)cc2)N(Cc2ccco2)C(=O)c2snc(C(N)=O)c2N)o1 (centres undefined)	–	inactive: 3.45%

Taken from above.
CCC(C(=O)OCC(=O)c1ccc2c(c1)NC(=O)CO2)c1ccccc1 (centres undefined) – Potency: inconclusive: 14.1 µM [activator, partial curve]
CN(C(=O)c1cccc(COc2ccc(Cl)cc2Cl)c1)c1ccccc1 – Potency: inconclusive: 17.8 µM [activator, single point]

The list goes on.

SMILES	Potency	growth rescue (activation)
Cc1nc(NN)c2c3c(sc2n1)COC(C)(C)C3	–	inactive: 2.5%
Cc1ccc(C)c(S(=O)(=O)Nc2ccc(C(N)=O)cc2)c1	–	inactive: 5.54%
COc1ccccc1N1CCN(C(=O)c2ccc(CSc3ccccc3)cc2)CC1	inconclusive: 20 µM [activator, partial curve]	–
CCOC(=O)C1CCN(c2cc3c(cc2NC(=O)c2ccccc2)n(C)c(=O)n3C)CC1	inconclusive: 3.16 µM [activator, full curve]	–
O=C(COc1cc(Cl)c(Cl)cc1Cl)Nc1ccncc1	inconclusive: 0.562 µM [activator, full curve, poor fit]	–
O=C(CNc1ccccc1-c1ccccc1)NCc1ccccc1	inconclusive: 35.5 µM [activator, single point]	–
CN(C)CCCN(C(=O)CCOc1ccccc1)c1nc2c(F)cccc2s1	–	inactive: -5.72%
CCC(C)Nc1nc(N)c([N+](=O)[O-])c(Nc2ccccc2OC)n1 (centres undefined)	inconclusive: 12.6 µM [activator, partial curve]	–
Cc1nn(-c2ccccc2)c2ncc(C(=O)c3cc(Cl)ccc3O)cc12	inconclusive: 28.2 µM [activator, single point]	–
CCC(C)(C)n1nnnc1C(c1cc2ccc(OC)cc2[nH]c1=O)N1CCc2ccccc21 (centres undefined)	inconclusive: 22.4 µM [activator, partial curve]	–
C=C(C)C1CC=C(C(=O)O)CC1 (centres undefined)	inconclusive: 18.4 µM [activator, single point]	–
CCOc1ccc(NC(=S)NC(=O)c2c(Br)cnn2C)c([N+](=O)[O-])c1	inconclusive: 25.1 µM [activator, single point]	–
N#Cc1c(/N=C\c2ccc(O)c([N+](=O)[O-])c2)sc2c1CCCC2	inconclusive: 1.78 µM [activator, partial curve]	–
O=C(Nc1ccccc1C(=O)NC1CC1)c1ccc([N+](=O)[O-])o1	inconclusive: 10 µM [activator, partial curve]	–
Cc1cc(Cl)ccc1OCC(=O)NNC(=O)c1cnccn1	inconclusive: 17.8 µM [activator, partial curve]	–
CC1=CC2=NC(=O)/C(=C\c3cccn3CCOc3cc(C)ccc3C)C(=N)N2O1	inconclusive: 17.8 µM [activator, single point]	–
CC(C)C(NS(=O)(=O)c1c(Cl)cccc1Cl)C(=O)OCC(=O)c1c[nH]c2ccccc12 (centres undefined)	inconclusive: 35.5 µM [activator, single point]	–
O=C(c1ccco1)N1CCN(c2ncnc3c2[nH]c2ccc(Cl)cc23)CC1	inconclusive: 5.62 µM [activator, single point]	–
CCCC(C)C(=O)OCC(=O)Nc1c(Br)cc(C)cc1Br (centres undefined)	–	inactive: 0.339%
CCOC(=O)C1=C(C)NC(=O)NC1c1ccc(-c2ccc(Cl)cc2)o1 (centres undefined)	–	inactive: 0.551%
Cc1ccccc1/C=C1\C(=O)Nc2ccc(F)cc21	inconclusive: 35.5 µM [activator, single point]	–
O=C(OCC(=O)N(Cc1ccccc1)Cc1ccccc1)c1ccccc1NCCO	inconclusive: 17.8 µM [activator, single point]	–
COc1ccc2c(c1)-c1c(sn(-c3ccccc3)c1=S)C(C)(C)N2	inconclusive: 11.2 µM [activator, partial curve]	–

Reformatted: entries from further up
COc1ccccc1N1CCN(C(=O)c2ccc(CSc3ccccc3)cc2)CC1
  Potency: inconclusive: 20 µM [activator, partial curve]
O=C(CNc1ccccc1-c1ccccc1)NCc1ccccc1
  Potency: inconclusive: 35.5 µM [activator, single point]
CCC(C)(C)n1nnnc1C(c1cc2ccc(OC)cc2[nH]c1=O)N1CCc2ccccc21 (centres undefined)
  Potency: inconclusive: 22.4 µM [activator, partial curve]
C=C(C)C1CC=C(C(=O)O)CC1 (centres undefined)
  Potency: inconclusive: 18.4 µM [activator, single point]

The list goes on:

SMILES	Potency	growth rescue (activation)
Cc1[nH]ccc(=O)c1OC1OC(CO)C(O)C(O)C1O (centres undefined)	–	inactive: -2.75%
CC(C)c1ccc(OCC(=O)N(c2ccccn2)C2CCCCC2)cc1	inconclusive: 11.2 µM [activator, partial curve]	–
CCc1ccccc1NC(=O)CNC(=O)CCc1nc2sc3c(c2c(=O)[nH]1)CCCC3	–	inactive: -2.29%
CC1(C)CC(=O)c2cc(NC(=O)c3ccccc3)c(=O)oc2C1	–	inactive: -0.833%
Nc1nnc(CSCc2ccc(Cl)cc2Cl)s1	–	inactive: -0.388%
CNC(=O)c1csc(Cc2c(Cl)sc3ccc(Cl)cc23)n1	inconclusive: 3.55 µM [activator, partial curve]	–
N=C(N)c1ccc(OCCCCCOc2ccc(C(=N)N)cc2)cc1 (tested in a mixture with another compound)	active: 2.31 µM	–
Cc1ccccc1-c1nsc(SCC(=O)NCc2ccc3c(c2)OCO3)n1	inconclusive: 25.1 µM [activator, single point]	–
Cc1[nH]c2ccccc2c1/C=C/C(=O)c1ccccc1	inconclusive: 10 µM [activator, partial curve]	–
CCCc1nc2ccccc2c(C(=O)OCC(=O)NCc2ccc3c(c2)OCO3)c1CC	inconclusive: 35.5 µM [activator, single point]	–
CN(CC(=O)Nc1cccc(F)c1)C(=O)/C=C/c1cc(Br)ccc1OC(F)F	inconclusive: 15.8 µM [activator, single point]	–
Cn1cccc1Cc1nnc(SCC(=O)NCCc2ccccc2)n1C	inconclusive: 17.8 µM [activator, partial curve]	–
COC(=O)C1=C(C)Nc2nnnn2C1c1cccnc1 (centres undefined)	–	inactive: 1.38%
Clc1ccc(-c2cn3ccccc3n2)cc1	–	inactive: -2.65%
CC(NC(=O)CC(c1ccccc1)c1cc(Cl)ccc1O)c1ccccc1 (centres undefined)	inconclusive: 12.6 µM [activator, partial curve]	–
O=[N+]([O-])c1cc(Cl)cc(/C=N/NC(=S)Nc2ccc(S(=O)(=O)N3CCOCC3)cc2)c1O	–	inactive: 7.07%
Cc1cc(F)ccc1S(=O)(=O)Nc1ncnc2sc3c(c12)CCC3	inconclusive: 11.2 µM [activator, partial curve]	–
CC(C)(C)c1ccc(C(=O)Nc2ccc(S(N)(=O)=O)cc2)cc1	inconclusive: 12.6 µM [activator, partial curve]	–
COc1ccc(CCNC(=O)CN2C(=O)COc3ccc(S(=O)(=O)N4CCCC4)cc32)c(OC)c1	inconclusive: 31.6 µM [activator, single point]	–
C=CCn1c2ccccc2c(=O)c2cc(C#CC[C@@H](C)O)ccc21	–	inactive: 17.5%
COc1ccc2oc(C(=O)N3CCN(C(c4ccccc4)c4ccccc4)CC3)c(C)c2c1	inconclusive: 12.6 µM [activator, partial curve]	–
COc1ccc(NC(=O)C23CCC(C)(C(=O)O2)C3(C)C)cc1 (centres undefined)	–	inactive: 0.653%
O=C(O)CC1(c2ccc(F)cc2)C2CC3CC(C2)CC1C3 (centres undefined)	inconclusive: 11.2 µM [activator, partial curve]	–

Reference: PubChem BioAssay AID485298 (National Center for Advancing Translational Sciences (NCATS), 2010)
